PubChem BioAssay AID1224827 | NIAID – 2016
This is an unselected part of about 3,800 reagents tested. About 2,200 of all reagents (57%) were called active. 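Active means a strong reporter change in either direction; calls are per siRNA, not per gene; qiagen siRNAs gave weaker effects.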 Reagents against one gene are numbered here.

- Screen: 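Retest primary hits on a TNF reporter with six siRNAs per gene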 (follow-up of hits)
- Cells: RAW264.7 G9 mouse macrophage reporter clone
- Reagents: single siRNA against mouse genes, 100 nM siRNA
- Timing: siRNA for 2 days, then LPS about 16 h
- Challenge: bacterial lipopolysaccharide (LPS), 10 ng/ml, cells fixed after overnight (about 16 h) stimulation
- Measurement: 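Imaged nuclear TNF reporter intensity, background removed, scaled per plate and to non-targeting control wells, as z-scores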
- Reading the numbers: TNF reporter z-score, mean and TNF reporter z-score: higher = stronger Tnf promoter reporter signal; gene median z, three same-vendor siRNAs: higher = stronger Tnf reporter signal for the gene
- Active means: 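An siRNA is called active when its mean z-score over replicates is at least +2 or at most -2; control wells get no call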

| gene | siRNA no. | TNF reporter z-score, mean | gene median z, three same-vendor siRNAs | TNF reporter z-score, repeat 1 | TNF reporter z-score, repeat 2 | call |
| --- | --- | --- | --- | --- | --- | --- |
| Was (GeneID 22376) | 1 | 4.39 | -2.84 | 2.9 | 5.87 | active |
| Was (GeneID 22376) | 2 | -3.17 | -2.84 | -3.58 | -2.77 | active |
| Was (GeneID 22376) | 3 | -3.23 | -2.84 | -3.54 | -2.92 | active |
| Was (GeneID 22376) | 4 | -1.12 | -1.63 | -1.63 | -0.605 | inactive |
| Was (GeneID 22376) | 5 | -1.77 | -1.63 | -1.64 | -1.91 | inactive |
| Was (GeneID 22376) | 6 | -1.62 | -1.63 | -0.591 | -2.65 | inactive |
| Nr0b2 (GeneID 23957) | 1 | 0.476 | -3.46 | -0.629 | 1.58 | inactive |
| Nr0b2 (GeneID 23957) | 2 | -4.59 | -3.46 | -2.39 | -6.78 | active |
| Nr0b2 (GeneID 23957) | 3 | -4.86 | -3.46 | -4.53 | -5.18 | active |
| Nr0b2 (GeneID 23957) | 4 | -0.121 | -4.23 | 1.95 | -2.19 | inactive |
| Nr0b2 (GeneID 23957) | 5 | -4.23 | -4.23 | -4.38 | -4.07 | active |
| Nr0b2 (GeneID 23957) | 6 | -4.65 | -4.23 | -4.77 | -4.52 | active |
| Atf3 (GeneID 11910) | 1 | 2.56 | -2.12 | 2.21 | 2.91 | active |
| Atf3 (GeneID 11910) | 2 | -2.12 | -2.12 | -1.91 | -2.33 | active |
| Atf3 (GeneID 11910) | 3 | -2.7 | -2.12 | -2.39 | -3.02 | active |
| Atf3 (GeneID 11910) | 4 | 3.33 | 0.183 | 6.82 | -0.169 | active |
| Atf3 (GeneID 11910) | 5 | 0.136 | 0.183 | 0.535 | -0.263 | inactive |
| Atf3 (GeneID 11910) | 6 | 0.65 | 0.183 | 2.79 | -1.49 | inactive |
| A730013G03Rik (GeneID 320952) | 1 | 0.0554 | -1.75 | -0.925 | 1.04 | inactive |
| A730013G03Rik (GeneID 320952) | 2 | -0.421 | -1.75 | -2.57 | 1.73 | inactive |
| A730013G03Rik (GeneID 320952) | 3 | -3.69 | -1.75 | -4.05 | -3.33 | active |
| A730013G03Rik (GeneID 320952) | 4 | 4.02 | 1.97 | 5.97 | 2.07 | active |
| A730013G03Rik (GeneID 320952) | 5 | 4.37 | 1.97 | 6.86 | 1.88 | active |
| A730013G03Rik (GeneID 320952) | 6 | 0.491 | 1.97 | 0.822 | 0.16 | inactive |
| Psmb6 (GeneID 19175) | 1 | 0.506 | -2.37 | 0.243 | 0.77 | inactive |
| Psmb6 (GeneID 19175) | 2 | -2.37 | -2.37 | -2.6 | -2.14 | active |
| Psmb6 (GeneID 19175) | 3 | -2.85 | -2.37 | -2.84 | -2.86 | active |
| Psmb6 (GeneID 19175) | 4 | 5.36 | 2.99 | 9.04 | 1.67 | active |
| Psmb6 (GeneID 19175) | 5 | 2.76 | 2.99 | 4.31 | 1.21 | active |
| Psmb6 (GeneID 19175) | 6 | 2.44 | 2.99 | 4.45 | 0.439 | active |
| Twist1 (GeneID 22160) | 1 | -1.27 | -2.33 | -2.11 | -0.439 | inactive |
| Twist1 (GeneID 22160) | 2 | -2.18 | -2.33 | -2.95 | -1.42 | active |
| Twist1 (GeneID 22160) | 3 | -2.6 | -2.33 | -2.56 | -2.65 | active |
| Twist1 (GeneID 22160) | 4 | 2.34 | -0.248 | 4.88 | -0.207 | active |
| Twist1 (GeneID 22160) | 5 | 0.612 | -0.248 | 1.61 | -0.389 | inactive |
| Twist1 (GeneID 22160) | 6 | -1.64 | -0.248 | -0.289 | -2.98 | inactive |
| Ufd1 (GeneID 22230) | 1 | -0.397 | -2.24 | -1.2 | 0.409 | inactive |
| Ufd1 (GeneID 22230) | 2 | -2.26 | -2.24 | -2.67 | -1.84 | active |
| Ufd1 (GeneID 22230) | 3 | -2.73 | -2.24 | -2.64 | -2.82 | active |
| Ufd1 (GeneID 22230) | 4 | 0.981 | -0.755 | 1.76 | 0.204 | inactive |
| Ufd1 (GeneID 22230) | 5 | -0.755 | -0.755 | -1.1 | -0.409 | inactive |
| Ufd1 (GeneID 22230) | 6 | -1.9 | -0.755 | -1.68 | -2.12 | inactive |

An excerpt of the results above, for reference:
| gene | siRNA no. | TNF reporter z-score, mean | gene median z, three same-vendor siRNAs | TNF reporter z-score, repeat 1 | TNF reporter z-score, repeat 2 | call |
| --- | --- | --- | --- | --- | --- | --- |
| Twist1 (GeneID 22160) | 4 | 2.34 | -0.248 | 4.88 | -0.207 | active |
| Twist1 (GeneID 22160) | 5 | 0.612 | -0.248 | 1.61 | -0.389 | inactive |
| Twist1 (GeneID 22160) | 6 | -1.64 | -0.248 | -0.289 | -2.98 | inactive |
| Ufd1 (GeneID 22230) | 1 | -0.397 | -2.24 | -1.2 | 0.409 | inactive |
| Ufd1 (GeneID 22230) | 2 | -2.26 | -2.24 | -2.67 | -1.84 | active |
| Ufd1 (GeneID 22230) | 3 | -2.73 | -2.24 | -2.64 | -2.82 | active |
| Ufd1 (GeneID 22230) | 4 | 0.981 | -0.755 | 1.76 | 0.204 | inactive |
